# Test results as given in patent US12357702B2 (S. M. Discovery Group Inc., priority 2013, dated 2025).
# Some peptides are written in HELM: one residue between dots, names in brackets for other building blocks, links after the first $. Where no end group is shown, it is not given here. The star is where a group is joined. 5FAM = O=C1OC2(c3ccc(O)cc3Oc3cc(O)ccc32)c2ccc(C(=O)*)cc21
# Assay: peptide synthesis
# Conditions: whole synthesis, analytical HPLC
row,Substance,purity (crude or final not stated)
1,5FAM-CGYRPVHNIGHWRAPG,98.56%
2,5FAM-CGYRPVHNIRGHGAPG,98.26%
3,CGYRPVHNIRGHWAPG,98.11%
4,"Cys-Gly-Tyr-Arg-Pro-Val-His-Asn-Ile-Arg-Gly-His-Trp-Ala-Pro-Gly-Lys-5-FAM (CGYRPVHNIRGHWAPGK; C-terminal 5-FAM; artificial peptide CGY-FAM; SITE 17 misc_feature - a fluorophore (e.g., 5-FAM) is attached to Lys)",98.36%
5,PEPTIDE1{[5FAM].C.G.Y.R.P.V.H.N.I.R.G.H.W.A.P.G}$$$$V2.0,98.91%
